{
  "sequences": {"note": "Protein sequences, listed by entry. Tags and fused reporters are not part of them.", "UniProt P49023": "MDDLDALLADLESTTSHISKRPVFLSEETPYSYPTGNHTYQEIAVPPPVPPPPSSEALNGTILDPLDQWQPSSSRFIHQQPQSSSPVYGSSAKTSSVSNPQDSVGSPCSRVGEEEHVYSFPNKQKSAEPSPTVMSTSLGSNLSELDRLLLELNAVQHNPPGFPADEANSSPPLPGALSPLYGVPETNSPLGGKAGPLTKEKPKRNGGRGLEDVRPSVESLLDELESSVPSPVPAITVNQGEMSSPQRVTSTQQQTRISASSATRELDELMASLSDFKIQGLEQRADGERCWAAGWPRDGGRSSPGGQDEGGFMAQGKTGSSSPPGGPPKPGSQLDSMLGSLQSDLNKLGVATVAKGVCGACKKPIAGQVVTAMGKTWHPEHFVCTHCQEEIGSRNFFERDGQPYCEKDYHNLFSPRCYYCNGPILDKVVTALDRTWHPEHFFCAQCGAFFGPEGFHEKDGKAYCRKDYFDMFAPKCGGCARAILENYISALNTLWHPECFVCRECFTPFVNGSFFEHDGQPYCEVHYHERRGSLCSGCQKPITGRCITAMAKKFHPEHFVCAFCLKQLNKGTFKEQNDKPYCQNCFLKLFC", "UniProt Q14155": "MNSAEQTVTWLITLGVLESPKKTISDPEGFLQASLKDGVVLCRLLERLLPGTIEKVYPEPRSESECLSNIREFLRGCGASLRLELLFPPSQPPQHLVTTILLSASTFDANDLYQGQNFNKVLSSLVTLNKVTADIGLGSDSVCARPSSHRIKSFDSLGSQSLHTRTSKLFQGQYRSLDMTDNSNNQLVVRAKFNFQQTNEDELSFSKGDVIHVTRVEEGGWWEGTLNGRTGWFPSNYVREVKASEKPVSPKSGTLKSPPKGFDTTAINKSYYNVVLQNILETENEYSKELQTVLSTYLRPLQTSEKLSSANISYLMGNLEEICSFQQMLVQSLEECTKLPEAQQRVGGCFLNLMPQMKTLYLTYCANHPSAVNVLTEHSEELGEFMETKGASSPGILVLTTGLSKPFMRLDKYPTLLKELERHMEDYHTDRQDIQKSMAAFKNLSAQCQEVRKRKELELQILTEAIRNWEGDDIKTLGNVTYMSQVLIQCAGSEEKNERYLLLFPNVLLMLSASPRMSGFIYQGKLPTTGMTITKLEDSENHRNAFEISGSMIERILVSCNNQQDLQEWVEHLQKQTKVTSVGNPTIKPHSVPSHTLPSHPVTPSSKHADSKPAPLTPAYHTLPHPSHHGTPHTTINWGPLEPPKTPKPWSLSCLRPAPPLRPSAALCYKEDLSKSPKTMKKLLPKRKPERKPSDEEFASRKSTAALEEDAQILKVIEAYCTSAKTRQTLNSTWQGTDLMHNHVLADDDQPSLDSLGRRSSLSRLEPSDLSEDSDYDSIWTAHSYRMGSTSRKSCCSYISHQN"},
  "source": "paper doi:10.1101/2024.05.04.592404",
  "target": "miniTurbo-paxillin (paxillin fused to a small and fast promiscuous biotin ligase) (human) (UniProt P49023)",
  "assay": "proximity labelling",
  "note": "These are yes or no findings as the source states them, for the method shown. Binding seen in cells or lysates may run through a third protein. A yes stands for co-enrichment or nearness to the bait. Other partners may have been found.",
  "data": [
    {"substance": "ARHGEF7/β-PIX (from UniProt Q14155 1-803)", "values": [
      {"measurement": "binding", "value": "binds"}
    ]}
  ]
}
